In publication PMC5263256:
These are yes or no findings as the source states them, for the method shown. In cells and extracts the contact can be indirect. A yes stands for co-enrichment or nearness to the bait. Other partners may have been found. Sequences can lack the tags named with a protein.

Sequences of proteins named here, by UniProt entry; tags and fusion partners are left off.
UniProt Q8QZV7: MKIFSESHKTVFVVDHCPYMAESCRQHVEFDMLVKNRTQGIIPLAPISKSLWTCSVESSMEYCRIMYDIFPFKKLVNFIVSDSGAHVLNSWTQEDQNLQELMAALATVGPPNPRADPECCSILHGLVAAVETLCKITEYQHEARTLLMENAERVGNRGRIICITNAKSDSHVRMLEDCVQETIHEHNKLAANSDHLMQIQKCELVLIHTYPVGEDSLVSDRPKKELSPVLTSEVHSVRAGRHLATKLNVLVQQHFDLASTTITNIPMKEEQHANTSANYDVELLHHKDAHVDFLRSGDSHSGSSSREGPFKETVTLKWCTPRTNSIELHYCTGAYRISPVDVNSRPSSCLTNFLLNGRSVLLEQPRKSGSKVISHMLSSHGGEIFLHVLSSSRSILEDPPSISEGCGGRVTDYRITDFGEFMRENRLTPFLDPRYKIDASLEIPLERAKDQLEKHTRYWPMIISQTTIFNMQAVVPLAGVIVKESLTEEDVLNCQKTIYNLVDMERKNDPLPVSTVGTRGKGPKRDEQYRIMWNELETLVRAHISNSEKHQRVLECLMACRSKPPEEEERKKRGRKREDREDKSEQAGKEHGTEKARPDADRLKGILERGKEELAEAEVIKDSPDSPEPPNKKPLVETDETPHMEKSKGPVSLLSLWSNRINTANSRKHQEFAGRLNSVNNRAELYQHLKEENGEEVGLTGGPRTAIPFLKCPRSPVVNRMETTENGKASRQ
UniProt Q9CWS4: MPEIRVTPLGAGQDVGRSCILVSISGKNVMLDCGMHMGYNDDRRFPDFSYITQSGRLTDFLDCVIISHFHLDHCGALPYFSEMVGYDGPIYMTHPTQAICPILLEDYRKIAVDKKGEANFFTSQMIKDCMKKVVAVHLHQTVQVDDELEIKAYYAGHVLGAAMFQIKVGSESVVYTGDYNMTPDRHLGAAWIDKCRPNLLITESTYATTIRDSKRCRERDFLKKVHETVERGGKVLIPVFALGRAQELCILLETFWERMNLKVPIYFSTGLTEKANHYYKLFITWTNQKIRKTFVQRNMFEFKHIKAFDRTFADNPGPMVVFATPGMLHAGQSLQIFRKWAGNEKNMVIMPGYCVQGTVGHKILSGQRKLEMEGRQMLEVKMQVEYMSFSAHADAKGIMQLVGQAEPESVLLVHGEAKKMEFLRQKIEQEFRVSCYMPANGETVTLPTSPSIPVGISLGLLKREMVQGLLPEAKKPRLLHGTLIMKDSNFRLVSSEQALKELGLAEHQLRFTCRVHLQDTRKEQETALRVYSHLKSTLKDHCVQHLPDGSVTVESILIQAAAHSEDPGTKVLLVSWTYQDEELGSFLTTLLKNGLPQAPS
UniProt Q9QYJ0: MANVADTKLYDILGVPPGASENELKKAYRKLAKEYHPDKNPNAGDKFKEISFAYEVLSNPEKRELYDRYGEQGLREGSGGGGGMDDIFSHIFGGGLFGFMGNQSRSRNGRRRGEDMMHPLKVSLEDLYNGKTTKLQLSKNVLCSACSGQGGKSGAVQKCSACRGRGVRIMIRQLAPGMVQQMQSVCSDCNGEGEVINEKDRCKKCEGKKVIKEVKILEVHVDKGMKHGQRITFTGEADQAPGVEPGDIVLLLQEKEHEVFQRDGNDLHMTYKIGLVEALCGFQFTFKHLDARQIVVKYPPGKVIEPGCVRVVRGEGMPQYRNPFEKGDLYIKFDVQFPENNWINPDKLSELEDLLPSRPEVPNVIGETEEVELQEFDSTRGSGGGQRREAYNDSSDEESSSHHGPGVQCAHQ
UniProt P17156: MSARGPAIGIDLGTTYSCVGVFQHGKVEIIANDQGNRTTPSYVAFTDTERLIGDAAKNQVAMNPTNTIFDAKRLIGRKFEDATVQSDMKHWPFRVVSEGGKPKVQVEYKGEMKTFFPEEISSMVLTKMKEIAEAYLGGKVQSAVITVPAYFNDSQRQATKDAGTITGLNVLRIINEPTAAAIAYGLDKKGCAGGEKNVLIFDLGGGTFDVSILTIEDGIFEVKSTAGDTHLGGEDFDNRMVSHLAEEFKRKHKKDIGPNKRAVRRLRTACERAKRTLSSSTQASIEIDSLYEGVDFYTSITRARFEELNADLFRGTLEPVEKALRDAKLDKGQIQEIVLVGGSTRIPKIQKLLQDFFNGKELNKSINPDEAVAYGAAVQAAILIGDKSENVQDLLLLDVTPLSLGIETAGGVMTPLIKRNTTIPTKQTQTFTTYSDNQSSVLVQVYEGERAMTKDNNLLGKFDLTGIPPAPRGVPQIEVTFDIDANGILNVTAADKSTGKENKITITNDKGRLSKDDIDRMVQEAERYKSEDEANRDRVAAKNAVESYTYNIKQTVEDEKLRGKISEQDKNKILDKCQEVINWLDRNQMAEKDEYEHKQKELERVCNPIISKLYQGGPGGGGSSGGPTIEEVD
UniProt Q80UK8: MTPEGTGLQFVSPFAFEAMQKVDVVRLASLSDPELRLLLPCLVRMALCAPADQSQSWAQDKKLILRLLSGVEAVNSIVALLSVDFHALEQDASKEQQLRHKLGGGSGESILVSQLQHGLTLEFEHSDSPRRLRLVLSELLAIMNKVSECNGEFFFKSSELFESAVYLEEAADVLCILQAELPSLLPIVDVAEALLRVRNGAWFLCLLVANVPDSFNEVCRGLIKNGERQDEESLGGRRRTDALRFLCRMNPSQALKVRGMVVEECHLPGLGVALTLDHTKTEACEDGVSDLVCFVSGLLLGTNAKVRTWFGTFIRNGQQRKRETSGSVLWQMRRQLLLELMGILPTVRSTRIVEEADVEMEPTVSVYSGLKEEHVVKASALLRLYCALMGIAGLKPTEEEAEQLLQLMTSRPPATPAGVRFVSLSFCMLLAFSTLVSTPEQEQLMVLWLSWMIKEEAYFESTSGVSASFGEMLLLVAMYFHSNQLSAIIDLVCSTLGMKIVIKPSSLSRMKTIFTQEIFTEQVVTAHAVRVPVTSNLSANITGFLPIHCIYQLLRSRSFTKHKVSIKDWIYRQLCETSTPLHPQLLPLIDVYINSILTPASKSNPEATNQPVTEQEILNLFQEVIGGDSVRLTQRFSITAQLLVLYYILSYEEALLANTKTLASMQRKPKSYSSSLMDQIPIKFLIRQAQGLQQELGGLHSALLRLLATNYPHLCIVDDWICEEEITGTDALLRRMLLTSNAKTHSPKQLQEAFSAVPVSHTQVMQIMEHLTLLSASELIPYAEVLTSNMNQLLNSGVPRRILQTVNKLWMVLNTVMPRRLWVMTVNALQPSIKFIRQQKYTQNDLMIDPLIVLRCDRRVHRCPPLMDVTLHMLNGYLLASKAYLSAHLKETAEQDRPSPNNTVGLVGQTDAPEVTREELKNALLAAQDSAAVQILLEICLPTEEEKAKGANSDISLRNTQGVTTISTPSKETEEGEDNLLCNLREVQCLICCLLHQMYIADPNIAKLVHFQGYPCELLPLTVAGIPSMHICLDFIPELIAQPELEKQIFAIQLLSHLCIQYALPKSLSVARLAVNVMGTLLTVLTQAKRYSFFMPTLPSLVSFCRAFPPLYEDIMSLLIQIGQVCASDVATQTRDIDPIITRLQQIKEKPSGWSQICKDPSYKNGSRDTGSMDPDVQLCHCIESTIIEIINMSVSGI
UniProt Q7TPD0: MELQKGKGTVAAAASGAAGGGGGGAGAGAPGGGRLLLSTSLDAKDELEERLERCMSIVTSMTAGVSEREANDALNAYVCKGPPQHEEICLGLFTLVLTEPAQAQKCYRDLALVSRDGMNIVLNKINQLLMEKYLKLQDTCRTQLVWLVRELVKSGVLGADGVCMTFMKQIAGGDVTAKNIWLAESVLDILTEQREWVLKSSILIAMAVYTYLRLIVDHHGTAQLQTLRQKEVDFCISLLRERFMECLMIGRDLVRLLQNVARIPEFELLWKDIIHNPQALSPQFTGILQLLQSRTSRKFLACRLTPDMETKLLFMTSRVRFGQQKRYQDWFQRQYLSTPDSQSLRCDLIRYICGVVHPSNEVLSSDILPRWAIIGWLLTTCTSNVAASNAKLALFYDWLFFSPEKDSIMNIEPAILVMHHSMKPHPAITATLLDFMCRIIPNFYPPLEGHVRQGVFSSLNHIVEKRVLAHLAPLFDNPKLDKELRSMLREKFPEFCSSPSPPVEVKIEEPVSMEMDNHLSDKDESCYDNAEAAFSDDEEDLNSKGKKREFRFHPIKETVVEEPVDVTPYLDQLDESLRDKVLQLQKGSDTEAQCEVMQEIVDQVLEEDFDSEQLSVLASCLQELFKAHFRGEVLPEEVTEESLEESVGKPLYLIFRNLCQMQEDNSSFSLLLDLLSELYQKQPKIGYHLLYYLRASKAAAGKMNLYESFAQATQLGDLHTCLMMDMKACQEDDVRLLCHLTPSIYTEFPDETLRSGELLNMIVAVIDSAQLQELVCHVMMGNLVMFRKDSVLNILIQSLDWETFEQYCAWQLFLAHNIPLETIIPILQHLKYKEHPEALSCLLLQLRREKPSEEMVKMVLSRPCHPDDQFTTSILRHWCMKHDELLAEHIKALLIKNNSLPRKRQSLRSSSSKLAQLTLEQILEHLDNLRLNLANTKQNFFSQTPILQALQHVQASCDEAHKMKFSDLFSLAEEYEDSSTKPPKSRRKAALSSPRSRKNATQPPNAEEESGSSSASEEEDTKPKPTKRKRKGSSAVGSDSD
UniProt Q8CHT3: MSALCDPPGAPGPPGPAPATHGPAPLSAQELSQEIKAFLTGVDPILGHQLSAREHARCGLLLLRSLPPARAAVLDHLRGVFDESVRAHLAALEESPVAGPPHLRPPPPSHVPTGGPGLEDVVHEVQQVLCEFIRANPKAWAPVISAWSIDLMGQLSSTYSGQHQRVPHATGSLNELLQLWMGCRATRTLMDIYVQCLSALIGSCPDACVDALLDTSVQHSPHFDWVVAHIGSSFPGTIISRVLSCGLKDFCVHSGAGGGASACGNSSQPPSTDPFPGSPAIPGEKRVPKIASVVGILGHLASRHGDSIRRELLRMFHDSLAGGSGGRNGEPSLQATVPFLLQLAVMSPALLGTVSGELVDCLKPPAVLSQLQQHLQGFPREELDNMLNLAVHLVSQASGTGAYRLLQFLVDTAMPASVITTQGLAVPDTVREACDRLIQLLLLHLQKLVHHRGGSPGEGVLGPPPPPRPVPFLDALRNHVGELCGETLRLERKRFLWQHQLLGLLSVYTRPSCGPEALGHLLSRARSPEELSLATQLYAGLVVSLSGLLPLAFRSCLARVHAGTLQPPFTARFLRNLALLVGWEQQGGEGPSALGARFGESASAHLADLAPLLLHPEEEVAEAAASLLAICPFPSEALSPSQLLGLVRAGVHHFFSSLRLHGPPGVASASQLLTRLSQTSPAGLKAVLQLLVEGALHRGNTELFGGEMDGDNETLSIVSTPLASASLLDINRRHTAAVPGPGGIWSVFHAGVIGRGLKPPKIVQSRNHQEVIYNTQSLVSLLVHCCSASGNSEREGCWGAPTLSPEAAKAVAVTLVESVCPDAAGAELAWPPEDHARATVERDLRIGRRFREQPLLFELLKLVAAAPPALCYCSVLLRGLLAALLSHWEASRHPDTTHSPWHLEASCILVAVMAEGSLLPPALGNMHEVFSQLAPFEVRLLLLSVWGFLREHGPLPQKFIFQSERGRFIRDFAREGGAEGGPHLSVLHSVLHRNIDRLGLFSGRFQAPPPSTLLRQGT
UniProt Q9D168: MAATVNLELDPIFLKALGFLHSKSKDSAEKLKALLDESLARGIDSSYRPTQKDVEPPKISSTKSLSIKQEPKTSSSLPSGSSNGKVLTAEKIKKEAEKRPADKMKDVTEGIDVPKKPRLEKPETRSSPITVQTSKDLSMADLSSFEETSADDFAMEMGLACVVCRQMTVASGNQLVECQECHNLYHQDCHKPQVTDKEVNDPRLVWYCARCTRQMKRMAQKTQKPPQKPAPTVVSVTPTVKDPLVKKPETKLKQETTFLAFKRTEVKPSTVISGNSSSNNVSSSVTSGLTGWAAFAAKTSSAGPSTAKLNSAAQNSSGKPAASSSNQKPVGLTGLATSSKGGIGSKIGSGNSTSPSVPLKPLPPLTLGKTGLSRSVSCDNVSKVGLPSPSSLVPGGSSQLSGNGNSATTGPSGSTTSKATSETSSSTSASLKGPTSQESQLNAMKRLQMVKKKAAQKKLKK
UniProt Q8R2Y9: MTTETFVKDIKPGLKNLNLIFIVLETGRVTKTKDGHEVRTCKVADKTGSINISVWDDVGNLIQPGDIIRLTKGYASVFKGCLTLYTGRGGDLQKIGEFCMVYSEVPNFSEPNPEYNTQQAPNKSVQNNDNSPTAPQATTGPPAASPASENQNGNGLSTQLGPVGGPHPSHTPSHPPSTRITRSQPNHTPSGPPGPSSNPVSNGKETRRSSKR

T1: V5-tagged Zfp609 (mouse) (UniProt Q8BZ47)
T1 sequence: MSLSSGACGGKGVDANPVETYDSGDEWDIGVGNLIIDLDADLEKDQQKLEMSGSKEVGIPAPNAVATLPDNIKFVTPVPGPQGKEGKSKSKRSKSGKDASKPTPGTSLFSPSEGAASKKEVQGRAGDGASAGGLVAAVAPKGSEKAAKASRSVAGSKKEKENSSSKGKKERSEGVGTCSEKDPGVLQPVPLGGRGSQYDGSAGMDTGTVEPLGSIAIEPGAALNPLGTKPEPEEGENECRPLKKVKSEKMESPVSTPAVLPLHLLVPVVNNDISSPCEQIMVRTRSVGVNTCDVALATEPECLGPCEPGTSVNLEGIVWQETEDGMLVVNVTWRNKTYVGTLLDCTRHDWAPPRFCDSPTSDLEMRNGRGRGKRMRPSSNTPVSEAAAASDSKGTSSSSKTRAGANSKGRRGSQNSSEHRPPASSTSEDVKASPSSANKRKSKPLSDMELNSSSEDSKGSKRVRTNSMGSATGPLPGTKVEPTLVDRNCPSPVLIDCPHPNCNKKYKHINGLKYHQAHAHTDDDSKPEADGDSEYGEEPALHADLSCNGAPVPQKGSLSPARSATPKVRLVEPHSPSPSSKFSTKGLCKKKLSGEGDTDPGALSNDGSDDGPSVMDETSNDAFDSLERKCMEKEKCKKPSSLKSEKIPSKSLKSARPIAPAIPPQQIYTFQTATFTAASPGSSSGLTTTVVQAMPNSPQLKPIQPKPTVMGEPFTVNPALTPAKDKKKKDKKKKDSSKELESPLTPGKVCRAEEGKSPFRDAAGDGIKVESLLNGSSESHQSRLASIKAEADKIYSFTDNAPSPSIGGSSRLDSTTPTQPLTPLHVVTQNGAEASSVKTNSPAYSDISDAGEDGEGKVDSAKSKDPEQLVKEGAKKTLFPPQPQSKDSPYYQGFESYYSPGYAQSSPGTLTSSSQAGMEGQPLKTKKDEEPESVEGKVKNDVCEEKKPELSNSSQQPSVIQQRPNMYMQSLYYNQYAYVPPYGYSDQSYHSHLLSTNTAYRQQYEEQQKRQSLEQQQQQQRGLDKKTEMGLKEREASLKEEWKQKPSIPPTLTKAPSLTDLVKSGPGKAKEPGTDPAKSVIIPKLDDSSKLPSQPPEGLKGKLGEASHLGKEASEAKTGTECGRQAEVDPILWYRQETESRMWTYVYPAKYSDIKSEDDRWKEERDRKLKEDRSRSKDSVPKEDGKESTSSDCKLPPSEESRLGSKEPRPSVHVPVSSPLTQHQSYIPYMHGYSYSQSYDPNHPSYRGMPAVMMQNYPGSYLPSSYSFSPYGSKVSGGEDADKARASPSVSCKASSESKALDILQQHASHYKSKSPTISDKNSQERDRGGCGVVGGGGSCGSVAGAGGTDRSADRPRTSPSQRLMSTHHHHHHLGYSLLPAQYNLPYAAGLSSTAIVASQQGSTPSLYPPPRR


These molecules were tested against T1, V5-tagged Zfp609 (mouse) (assay: affinity purification with mass spectrometry; anti-V5 agarose beads on nuclear extract of Zfp609-V5-expressing NSCs, 3 hr at 4°C, 225 U Benzonase, washes in C-100* (100 mM KCl, 0.02% NP-40); NSCs not expressing Zfp609-V5 as control; hits present in two purifications).

Molecule | binding
Asun (from UniProt Q8QZV7 1-732) | binds
Cpsf3l (from UniProt Q9CWS4 1-600) | binds
Dnaja2 (from UniProt Q9QYJ0 1-412) | binds
Hspa2 (from UniProt P17156 1-633) | binds
Ints1 (from UniProt Q6P4S8 1-2195) | binds
Ints2 (from UniProt Q80UK8 1-1198) | binds
Ints3 (from UniProt Q7TPD0 1-1041) | binds
Ints5 (from UniProt Q8CHT3 1-1018) | binds
Ints6 (from UniProt Q6PCM2 1-883) | binds
Ints7 (from UniProt Q7TQK1 1-966) | binds
Ints8 (from UniProt Q80V86 1-995) | binds
Ints9 (from UniProt Q8K114 1-658) | binds
Ints12 (from UniProt Q9D168 1-461) | binds
Nabp2 (from UniProt Q8R2Y9 1-212) | binds
Nipbl (from UniProt Q6KCD5 1-2798) | binds
Setx (from UniProt A2AKX3 1-2646) | binds
Smc3 (from UniProt Q9CW03 1-1217) | binds
Stub1 (from UniProt Q9WUD1 1-304) | binds
Vwa9 (from UniProt Q8R3P6 1-515) | binds
Zcchc11 (from UniProt B2RX14) | binds
Rfx4 (protein, UniProt Q7TNK1 1-735) MHCGLLEEPDMDSTESWIERCLNESENKRYSSHTSLGNVSNDENEEKENNRASKPHSTPATLQWLEENYEIAEGVCIPRSALYMHYLDFCEKNDTQPVNAASFGKIIRQQFPQLTTRRLGTRGQSKYHYYGIAVKESSQYYDVMYSKKGAAWVSETGKREVTKQTVAYSPRSKLGTLLPDFPNVKDLNLPASLPEEKVSTFIMMYRTHCQRILDTVIRANFDEVQSFLLHFWQGMPPHMLPVLGSSTVVNIVGVCDSILYKAISGVLMPTVLQALPDSLTQVIRKFAKQLDEWLKVALHDLPENLRNIKFELSRRFSQILRRQTSLNHLCQASRTVIHSADITFQMLEDWRNVDLSSITKQTLYTMEDSRDEHRRLIIQLYQEFDHLLEEQSPIESYIEWLDTMVDRCVVKVAAKRQGSLKKVAQQFLLMWSCFGTRVIRDMTLHSAPSFGSFHLIHLMFDDYVLYLLESLHCQERANELMRAMKGEGSTAEAQEEIILTEATPPTPSPGPSFSPAKSATSVEVPPPSSPVSNPSPEYTGLSTAGAMQSYTWSLTYTVTTAAGSPAENSQQLPCMRSTHMPSSSVTHRIPVYSHREEHGYTGSYNYGSYGNQHPHPLQNQYPALPHDTAISGPLHYSPYHRSSAQYPFNSPTSRMEPCLMSSTPRLHPTPVTPRWPEVPTANACYTSPSVHSTRYGNSSDMYTPLTTRRNSEYEHMQHFPGFAYINGEASTGWAK | binds
Zbtb20 (protein, UniProt Q8K0L9 1-741) MLERKKPKTAENQKASEENEITQPGGSSAKPALPCLNFEAVLSPAPALIHSTHSLTNSHAHTGSSDCDISCKGMTERIHSINLHNFSNSVLETLNEQRNRGHFCDVTVRIHGSMLRAHRCVLAAGSPFFQDKLLLGYSDIEIPSVVSVQSVQKLIDFMYSGVLRVSQSEALQILTAASILQIKTVIDECTRIVSQNVGDVFPGIQDSGQDTPRGTPESGTSGQSSDTESGYLQSHPQHSVDRIYSALYACSMQNGSGERSFYSGAVVSHHETALGLPRDHHMEDPSWITRIHERSQQMERYLSTTPETTHCRKQPRPVRIQTLVGNIHIKQEMEDDYDYYGQQRVQILERNESEECTEDTDQAEGTESEPKGESFDSGVSSSIGTEPDSVEQQFGAAAPRDGQAEPAQPEQAAEAPAESSAQPNQLEPGASSPERSNESEMDNTVITVSNSSDKGVLQQPSVNTSIGQPLPSTQLYLRQTETLTSNLRMPLTLTSNTQVIGTAGNTYLPALFTTQPAGSGPKPFLFSLPQPLTGQQTQFVTVSQPGLSTFTAQLPAPQPLASSAGHSTASGQGDKKPYECTLCNKTFTAKQNYVKHMFVHTGEKPHQCSICWRSFSLKDYLIKHMVTHTGVRAYQCSICNKRFTQKSSLNVHMRLHRGEKSYECYICKKKFSHKTLLERHVALHSASNGTPPAGTPPGARAGPPGVVACTEGTTYVCSVCPAKFDQIEQFNDHMRMHVSDG | binds
Maged1 (protein, UniProt Q9QYH6 1-775) MAQKPDGGAGLRGFQAEASVEDSALLVQTLMEAIQISEAPPTSQATAAASGPNASPQSSQPPTANEKADTEVSAAAARPKTGFKAQNATTKGPNDYSQARNAKEMPKNQSKAAFKSQNGTPKGPHAASDFSQAAPTGKSAKKSEMAFKGQNSTKAGPGTTYNFPQSPSANEMTNNQPKTAKAWNDTTKVPGADAQTQNVNQAKMADVGTSAGISEADGAAAQTSADGSQTQNVESRTIIRGKRTRKVNNLNVEENNSGDQRRASLASGNWRSAPVPVTTQQNPPGAPPNVVWQTPLAWQNPSGWQNQTARQTPPAARQSPPARQTPSAWQNPVAWQNPVIWPNPVIWQNPVIWPNPIVWPGPIVWPNPMAWQSTPGWQSPPSWQAPPSWQSPQDWQGPPDWQVPPDWSMPPDWSFPSDWPFPPDWIPADWPIPPDWQNLRPSPNLRSSSNSRASQNQGPPQPRDVALLQERANKLVKYLMLKDYTKVPIKRSEMLRDIIREYTDVYPEIIERACFVLEKKFGIQLKEIDKEEHLYILISTPESLAGILGTTKDTPKLGLLLVILGIIFMNGNRATEAVLWEALRKMGLRPGVRHPLLGDLRKLLTYEFVKQKYLDYRRVPNSNPPEYEFLWGLRSYHETSKMKVLRFIAEVQKRDPRDWTAQFMEAADEALDALDAAAAEAEARAEARNRMGIGDEAVSGPWSWDDIEFELLTWDEEGDFGDPWSRIPFTFWARYHQNARSRFPQAFTGPIIGPSGTATANFAANFGAIGFFWVE | binds
Akap8l (protein, UniProt Q9R0L7 1-642) MSYTGFVQGSETTLQSTYCDTSAQPTCDYGYGTWNSGTNRGYENYGYGYGYGQDNTTNYGYGMATSHSWEMASSDTNANPSASGSASADSVLSRINQRLDMMPHLETDMIQGGVYGSGGGERYDSYEACDSRAILSERDLYRSSYDYGELDPEMEMAYEGQYDAYRDQFRMRGGDTFGPRAQGWARDARSGRPMASGYGRMWEDPMGARGQCMPGASRLPSLFSQNIIPEYGMFQGMRGGGAFSGGSRFGFGFGNGMKQMRRTWKTWTTADFRTKKKKRKQGGSPDEPDSKATRTDCSDNSDSDNDEGTEGEAAEGTESAEAMEKGSRVDGEDEEGKEDGREEGKEDPEKGALTAQDESSQAKRKLQASKKSQDKQKKRQRDRMVERIQFVCSLCKYRTFYEDEMGSHLDSKFHKEHFKYVGTKLPKQTADFLQEYVTNKTKKTEELRKTVEDLDGLIQQIYRDQDLTQEIAMEHFVKKVEAAHCAACDLFIPMQFGIIQKHLKTMDHNRNRRLMMEQSKKSSLMVARSILNNKLISKKLERYLKGENPFTDNPEEEKEQDEVEAGALDEGAPSEATELTEGVPAQPPVPLEPAPGTTTPPPPPPPEEEESPVPLLGGALQCQIRGIPGLDMEDDEEGGGGP | binds
Bag5 (protein, UniProt Q8CI32 1-447) MDMGNQHPSISRLQEIQREVKAIEPQVVGFSGLSDDKNYKRLERILTKQLFEIDSVDTEGKGDIQQARKRAAQETERLLKELEQNANHPHRIEIQNIFKEAQALVKDKIVPFYSGGNCVTDEFEEGIQDIILRLTHVKTGGKVSLRKARYRTLTKICAVQEVIEDCMKKQPSLPLSEDVHPSVAKINSVMCEVNKARGTLIALLMGVDSSETCRHLSCVLSGLIADLDALDVCGRTEIRNYRREVVEDINKLLKYLDLEEEADSTHAFDLGQNHSIIKIENVLKRMREIKNELLQAQSPPELYLRAKTELQGLIGQLDEVSLEKNPCIREARRRAVIEVQILITYLDLKEALEKRKLFPCEEHPPHKAVWEILGNLSEILGEVLSFGGNRTDKNYIRLEELLTKQLLALDAVDPQGEEKCKAARKQAVKLAQNILSYLDMKSDEWEY | binds
Cnp (protein, UniProt P16330 1-420) MNTSFTRKSHTFLPKLFFRKMSSSGAKEKPELQFPFLQDEDTVATLHECKTLFILRGLPGSGKSTLARLILEKYHDGTKMVSADAYKIIPGSRADFSEAYKRLDEDLAGYCRRDIRVLVLDDTNHERERLDQLFEMADQYQYQVVLVEPKTAWRLDCAQLKEKNQWQLSADDLKKLKPGLEKDFLPLYFGWFLTKKSSETLRKAGQVFLEELGNHKAFKKELRHFISGDEPKEKLELVSYFGKRPPGVLHCTTKFCDYGKAAGAEEYAQQEVVKRSYGKAFKLSISALFVTPKTAGAQVVLTDQELQLWPSDLDKPSASEGLPPGSRAHVTLGCAADVQPVQTGLDLLDILQQVKGGSQGEAVGELPRGKLYSLGKGRWMLSLTKKMEVKAIFTGYYGKGKPVPIHGSRKGGAMQICTII | binds
